One may read the AC50 as the concentration at which the activity in the assay is half-maximal.

The values that follow come from PubChem BioAssay AID1487 (National Center for Advancing Translational Sciences (NCATS), 2009).

This is one part of the list. These are further read-outs of the screen, such as a control signal, another cell line or another target. No call is given for them. Compounds called inactive in the main read-out are mostly missing here. The note in brackets gives the kind of curve behind each potency; many fits are weak.

The nature of this experiment: qHTS Assay for Modulators of Lamin A Splicing. Conditions: HeLa LMNA splicing GFP/RFP minigene ratio, 48 h. The essentials:
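S3 HeLa stable clones carrying a lamin A-EGFP splicing minigene plus DsRed2 were seeded at 600 cells/well in Opti-MEM with 2% FBS, pin-dosed and incubated 48 h at 37°C. Acumen cytometry (488 nm) gave the GFP/RFP total-intensity ratio.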

Where [1] appears, read: measured here: RFP viability control channel.
Where [2] appears, read: measured here: GFP splicing reporter channel.

For `O=C(Cc1ccc2c(c1)CCCC2)Nc1ccc2ccccc2c1`, the AC50 under setting [1] was 0.0562 µM [rising, full curve, poor fit]. The same measure, in the same setting: in the case of `COC(=O)c1c(NC(=O)C2(C)Cc3ccccc3C(=O)O2)sc2c1CCCC2` (stereo not drawn) it was 12.6 µM [rising, partial curve]. With `COc1ccc2oc(=O)c(-c3nc(-c4ccc(C)c(C)c4)cs3)cc2c1`, under setting [2], the AC50 was 10 µM [rising, partial curve]. Regarding `COc1ccc(C2SCCN2C(=S)Nc2ccc(Cl)cc2)cc1` (stereo not drawn), the half-maximal activity concentration (AC50) runs as follows: under setting [2], 20 µM [rising, single point]; under setting [1], 14.1 µM [rising, partial curve, poor fit]. With `OC(CNCc1cccc(Cl)c1)c1ccccc1` (stereo not drawn), the AC50 reads like this: under setting [2], 4.47 µM [falling, full curve]; under setting [1], 7.94 µM [falling, full curve, poor fit]. `Cc1ccc(C(=O)N2CCN3C(=O)c4ccccc4C23c2ccc(Cl)cc2)cc1` (stereo not drawn): the AC50 is, setting by setting: under setting [2], 12.6 µM [falling, single point]; under setting [1], 14.1 µM [falling, partial curve]. Take `COc1cccc(CC(=O)Nc2ccc(S(=O)(=O)Nc3nc(C)cc(C)n3)cc2)c1`: under setting [1], the half-maximal activity concentration (AC50) is 0.0251 µM [falling, full curve, poor fit]. On to `COc1cc(/C=C/C(=O)OCC(=O)N2CCC(Cc3ccccc3)CC2)ccc1O`, for which, under setting [1], the AC50 was 12.6 µM [rising, single point]. Turning to `O=C(C(c1ccccc1)c1ccccc1)N1CCN(CCN2C(=O)c3cccc4cccc(c34)C2=O)CC1`, the concentration at half-maximal activity (AC50) under setting [1] was 17.8 µM [rising, single point]. Same read-out and setting: to `COc1ccc(O[C@H]2C=C[C@@H](c3ccccc3)O[C@@H]2COC(=O)CC/C(C)=N/OC[C@@H](O)[C@H]2O[C@@H]3OC(C)(C)O[C@@H]3[C@H]2O)cc1` belongs 17.8 µM [rising, single point]. On the same count and under the same terms, to `COc1ccc2c(c1)c1nnc(SC)nc1n2C` belongs 22.4 µM [rising, partial curve, poor fit]. `CCCCOc1cc(C)nc(NCc2ccccc2)n1`: the half-maximal activity concentration (AC50) is 15.8 µM [rising, partial curve, poor fit] under setting [2] and 35.5 µM [rising, single point] under setting [1]. Take `Cc1ccc(/C=C/c2nc3ccccc3c(=O)n2CCc2ccccc2)cc1`: the AC50 under setting [1] is 17.8 µM [rising, partial curve].

Consider `O=C(NCc1ccccc1)c1cc(=O)c2ccccc2o1`, for which the AC50 under setting [1] is 0.0501 µM [falling, full curve, poor fit]. With `Cc1ccc(/C=N/NC(=O)c2csc3c2CCCC3)cc1`, the AC50 is 35.5 µM [rising, single point] under setting [2] and 14.1 µM [rising, partial curve] under setting [1]. For the compound `CCSC1=C(C#N)C(c2ccc(Cl)cc2)C2=C(CCCC2=O)N1` (stereo not drawn), the half-maximal activity concentration (AC50) under setting [1] is 11.2 µM [rising, single point]. As to `CCOC(=O)c1c(C)oc2nc(C)nc(N3CCN(c4cccc(C(F)(F)F)c4)CC3)c12`, the AC50 under setting [1] is 12.6 µM [rising, partial curve, poor fit]. In the case of `CCOC(=O)c1cccc(NC(=O)CN2CCN(c3ccc(OC)cc3)CC2)c1`, the AC50 under setting [1] is 31.6 µM [rising, single point].

Regarding `CCn1ncc([N+](=O)[O-])c1C(=O)Nc1ccc(C(=O)N2CCCCC2)cc1`, the AC50 reads like this: under setting [2], 11.2 µM [rising, partial curve]; under setting [1], 15.8 µM [rising, partial curve]. Consider `Cc1ccc(SCCC(=O)Nc2cc(C)on2)cc1`, for which the AC50 was 0.2 µM [rising, partial curve] under setting [2] and 0.891 µM [rising, partial curve] under setting [1].

As for `O=C(NCC(c1ccc2c(c1)OCO2)N1CCN(c2ccccc2F)CC1)c1ccccc1F` (stereo not drawn), under setting [2], the AC50 was 35.5 µM [falling, single point].

For the compound `CC(=O)OCC(=O)C1=CCC2C3CCC4=CC(=O)C=CC4(C)C3(F)C(OC(C)=O)CC12C` (stereo not drawn), the concentration at half-maximal activity (AC50) under setting [1] is 0.0158 µM [falling, full curve, poor fit]. Still for that read-out and setting: in the case of `CC(C)n1c(-c2ccco2)csc1=Nc1cccnc1` it was 11.2 µM [rising, partial curve]. For the compound `COCCn1c(CNc2ccc(F)cc2)nnc1SCC(=O)Nc1ccc(OC)cc1OC`, the AC50 by setting is: under setting [2], 8.91 µM [rising, partial curve, poor fit]; under setting [1], 12.6 µM [rising, partial curve]. Take `Cc1ccc2[nH]c(CSc3nnc(NC(=O)COc4ccc(F)cc4)s3)cc(=O)c2c1`: the concentration at half-maximal activity (AC50) under setting [2] was 0.0224 µM [rising, full curve, poor fit]. As for `Cc1cc(C(=O)CN2C(=O)C3CC=CCC3C2=O)c(C)n1-c1ccccc1` (stereo not drawn), the half-maximal activity concentration (AC50) was 31.6 µM [rising, single point] under setting [2] and 31.6 µM [rising, single point] under setting [1]. Regarding `O=C(NCc1cccnc1)c1cc(Sc2ccccc2Cl)nc2ccccc12`, the concentration at half-maximal activity (AC50) under setting [1] is 12.6 µM [rising, partial curve]. For the compound `CC(C)(C)OC(=O)NCCCCCc1nnc(SCC(=O)Nc2cccc(Cl)c2)o1`, the AC50 reads like this: under setting [2], 8.91 µM [rising, partial curve]; under setting [1], 3.98 µM [rising, partial curve]. On to `COc1ccccc1CCNC(=O)C(=O)NCC1OCCN1S(=O)(=O)c1ccc(Br)cc1` (stereo not drawn), for which the AC50 under setting [1] was 10 µM [rising, partial curve]. Same read-out and setting: in the case of `O=C(NN=C1CCCCCCC1)c1ccc2ccccc2n1` it was 0.708 µM [falling, full curve, poor fit]; in that of `O=C(CSc1nnnn1-c1ccc2c(c1)OCCO2)N1CCc2ccccc21`, 20 µM [rising, single point].

Turning to `COc1ccc(CCNC(=O)CSc2ccccc2)cc1OC`, the concentration at half-maximal activity (AC50) under setting [2] was 8.91 µM [rising, partial curve, poor fit].

On to `Cc1c(C(=O)NCc2ccc(OC(C)C)cc2)sc2ncnc(N(C)C3CCCCC3)c12`, for which the half-maximal activity concentration (AC50) under setting [1] was 35.5 µM [falling, partial curve, poor fit]. For the compound `CC1(C)CC2CC(C)(CN2S(=O)(=O)c2ccc(C(=O)Nc3ccc(S(=O)(=O)N4CCOCC4)cc3)cc2)C1` (stereo not drawn), the half-maximal activity concentration (AC50) under setting [1] was 2 µM [rising, full curve]. The same measure, in the same setting: to `COC(=O)c1ccc(NC(=O)Nc2ccc(F)cc2F)cc1` belongs 7.08 µM [rising, full curve, poor fit]. In the case of `CC#C[C@]1(O)CC[C@H]2[C@@H]3CCC4=CC(=O)CCC4=C3[C@@H](c3ccc(N(C)C)cc3)C[C@@]21C`, the concentration at half-maximal activity (AC50) is, setting by setting: under setting [2], 12.6 µM [rising, partial curve]; under setting [1], 17.8 µM [rising, partial curve]. Turning to `COCCN(CCOC)c1nc(S(=O)(=O)c2ccc(C)cc2)c(Cl)s1`, under setting [1], the AC50 is 31.6 µM [rising, single point]. Same read-out and setting: in the case of `O=C(Nc1ccc(Cl)cc1C(F)(F)F)C(Sc1nnc(-c2cccs2)o1)c1ccccc1` (stereo not drawn) it was 1.78 µM [rising, full curve, poor fit]. With `Cc1c(/C=N/n2cnnc2)c2ccccc2n1CCOc1ccccc1`, the AC50 under setting [2] is 11.2 µM [rising, partial curve]. Take `O=S(=O)(c1ccc(Oc2ccc(Br)cc2)cc1)N1CCOCC1`: under setting [1], the concentration at half-maximal activity (AC50) was 14.1 µM [rising, partial curve]. For the compound `CCOP(=O)(OCC)/C(C#N)=C/c1ccc([N+](=O)[O-])cc1`, the AC50 under setting [2] is 0.00398 µM [rising, full curve, poor fit].

Consider `COc1ccc(C(=O)N/N=C(\CCC(=O)O)c2ccc(C(C)(C)C)cc2)cc1OC`, for which, under setting [1], the AC50 was 35.5 µM [rising, partial curve, poor fit]. Still for that read-out and setting: to `c1ccc(CC2CCN(c3nnnn3-c3ccccc3)CC2)cc1` belongs 10 µM [rising, partial curve]. As for `O=C1c2ccccc2NC(c2ccc(-c3ccc(Br)cc3)o2)N1O` (stereo not drawn), under setting [2], the AC50 was 35.5 µM [rising, single point]. `O=C(CSc1ccc(-c2ccncc2)nn1)c1ccc(Cl)cc1`: the AC50 under setting [2] is 7.94 µM [falling, partial curve] and the AC50 under setting [1] is 6.31 µM [falling, partial curve]. For `O=c1[nH]c(CSc2ncc(-c3ccc(F)cc3)n2Cc2ccco2)nc2ccccc12`, the half-maximal activity concentration (AC50) is 10 µM [rising, partial curve] under setting [2] and 17.8 µM [rising, single point] under setting [1]. With `COCc1cc(C)n(CC(=O)OC)c(=O)c1C#N`, the AC50 under setting [2] is 1.26 µM [falling, partial curve, poor fit]. Take `CCOC(=O)c1cnc2c(-c3ccc(Cl)cc3)cnn2c1C`: under setting [1], the AC50 was 0.00631 µM [falling, full curve, poor fit]. On the same count and under the same terms, to `Cc1cc(Oc2ccc(C#N)cc2)nc(N2CCOCC2)n1` belongs 15.8 µM [rising, partial curve, poor fit]. With `COc1ccc(OCCSc2nnc(Cc3cccc4ccccc34)n2N)cc1`, the AC50 by setting is: under setting [2], 31.6 µM [rising, single point]; under setting [1], 31.6 µM [rising, single point]. With `COc1ccc(N=Nc2nc(-c3ccccc3)c(-c3ccccc3)[nH]2)cc1`, the concentration at half-maximal activity (AC50) by setting is: under setting [2], 20 µM [rising, single point]; under setting [1], 20 µM [rising, partial curve]. Consider `CCOc1ccc(-c2nnc(-c3ccco3)o2)cc1OCC`, for which the concentration at half-maximal activity (AC50) under setting [1] is 11.2 µM [rising, single point]. In the case of `O=C(O)C1=CC(=C(c2ccc(O)c(C(=O)O)c2)c2ccc(O)c(C(=O)O)c2)C=CC1=O`, the AC50 runs as follows: under setting [2], 14.1 µM [rising, single point]; under setting [1], 22.4 µM [rising, single point]. Take `COc1ccc(C(=O)Nc2nnc(S(=O)(=O)N3CCC(C)CC3)s2)cc1OC`: the AC50 was 35.5 µM [falling, single point] under setting [2] and 35.5 µM [falling, partial curve, poor fit] under setting [1]. Consider `CCc1ccc(NC(=O)c2ccc(F)c(S(=O)(=O)N(CC)c3ccccc3)c2)cc1`, for which the AC50 under setting [1] is 5.62 µM [rising, single point]. In the case of `C/C(=N\NC(=O)C(N)=O)c1cccc(C(F)(F)F)c1`, the AC50 under setting [2] was 0.0891 µM [falling, full curve, poor fit].
